IC50 data for one molecule are collected here from PMC11799252, “The differentiation state of small intestinal organoid models influences prediction of drug-induced toxicity” (Frontiers in Cell and Developmental Biology, 2025).

For this assay, the system named is differentiated duodenum organoids. As to the kind of experiment: Cell viability (Cell Titer Glo 3D, ATP) in differentiated organoid model. The note with it: Homo sapiens, read-out: IC50 (μM) Diff. As to the method:
Organoids were grown for 7–10 days then dissociated using TrypLE™ Express Enzyme, as described above. Single cells were resuspended in BME at a density of 5–6 × 10^5 cells/mL on ice and plated as 5 μL/well domes in clear-bottom 96-well plates (Corning). The domes were cured for 10–15 min at 37°C and overlaid with 100 μL of growth media replaced every 2–3 days.
Compounds were administered after 5–6 days in growth medium for proliferative organoids or after an additional 4 days in differentiation medium for differentiated organoids. Organoid media was replaced with 90 μL fresh media immediately prior to dosing. […] Luminescence was measured on EnSight and EnVision (Perkin Elmer) plate readers and normalized to on-plate vehicle controls (0.5%–1% DMSO) in corresponding growth or differentiation medium. […]
To compare toxicity responses of proliferative and differentiated organoids, proliferative organoids were grown 5–6 days in OGM prior to dosing, while differentiated organoids were transitioned to ODM for an additional 4 days prior to dosing (Figure 2A). Both proliferative and differentiated organoids were incubated with compounds or a 0.5%–1% DMSO vehicle control (as indicated) for 3 days prior to measuring ATP levels as a readout for cell viability. […]

The term IC50 denotes the concentration that inhibits the measured activity by half. Regarding `COc1cc2c(c(OC)c1OC)-c1ccc(OC)c(=O)cc1[C@@H](NC(C)=O)CC2` [colchicine], the IC50 turned out to be 0.084 µM.
